Laboratory results: US11400070B2, “Methods of treating retinal diseases” (Alimera Sciences, Inc., priority 2018, dated 2022)

Test system: ARPE-19 monolayers
Experiment: Suppression of gHSA-induced reduction of TEER in confluent ARPE-19 monolayers
Type: cell-based
Settings: for Hill coefficient: ARPE-19 assay, concentration-response; for Hill coefficient of concentration response curve: regression analysis

SMILES | Hill coefficient | Hill coefficient of concentration response curve
Cc1cc(OCC(O)CNC(C)C)c(C)c(C)c1O (stereo not shown) [Desacetylmetipranolol, desacetylmetipranolol] | 1 | ~1
CC(=O)Oc1c(C)cc(OCC(O)CNC(C)C)c(C)c1C (stereo not shown) [Metipranolol, metipranolol] | 1 | ~1
